# Results reported in the supplement of paper PMC4604168 (melanoma cell lines).
# Some of the results follow. Repeats are few or missing, and single values can be far off.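 Imaging used 1,536-well plates; nuclei positive for cleaved PARP by antibody were divided by total DNA-stained nuclei to yield the apoptosis fraction. Doses for screening kept most cells viable, and cell lines differ markedly in resting and induced cleaved-PARP levels.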
# How the values were obtained:
# Assay in all cases: cleaved PARP positive nuclei fraction relative to DMSO control; melanoma cells; higher = more apoptosis
# Conditions in all cases: library dose: low library concentration; 72 h
# CBRC034 = system: CBRC034 (line from a melanoma biopsy)
# COLO792 = system: COLO792
# COLO800 = system: COLO800
# COLO829 = system: COLO829
# G361 = system: G361
# IPC-298 = system: IPC-298
# IST-MEL1 = system: IST-MEL1
# LOXIMVI = system: LOXIMVI
# MEL-HO = system: MEL-HO
# LB2518-MEL = system: LB2518-MEL
Compound,cleaved PARP positive nuclei fraction (CBRC034) [%],cleaved PARP positive nuclei fraction (COLO792) [%],cleaved PARP positive nuclei fraction (COLO800) [%],cleaved PARP positive nuclei fraction (COLO829) [%],cleaved PARP positive nuclei fraction (G361) [%],cleaved PARP positive nuclei fraction (IPC-298) [%],cleaved PARP positive nuclei fraction (IST-MEL1) [%],cleaved PARP positive nuclei fraction (LOXIMVI) [%],cleaved PARP positive nuclei fraction (MEL-HO) [%],cleaved PARP positive nuclei fraction (LB2518-MEL) [%]
"Cn1cc(C2=C(c3cn(C4CCN(Cc5ccccn5)CC4)c4ccccc34)C(=O)NC2=O)c2ccccc21 [Enzastaurin] + N.N.[Cl][Pt][Cl] [cisplatin] (first compound 0.8 µM, partner dose 1.6 µM)",127,73.8,69,132,108,356,169,38.2,82.7,–
"N.N.[Cl][Pt][Cl] [cisplatin] + Oc1nc(-c2ccc(C(F)(F)F)cc2)nc2c1CSCC2 [XAV939] (first compound 1.6 µM, partner dose 2 µM)",–,113,124,98.3,115,96.3,120,36.9,–,75.3
"C#Cc1cccc(Nc2ncnc3cc(OCCOC)c(OCCOC)cc23)c1 [erlotinib] + Cc1cc(SCc2sc(-c3ccc(C(F)(F)F)c(F)c3)nc2C)ccc1OCC(=O)O [GW0742] (first compound 0.8 µM, partner dose 2 µM)",88.3,123,67.7,49.9,129,26.4,355,64.2,–,–
"C[C@]12O[C@H](C[C@]1(O)CO)n1c3ccccc3c3c4c(c5c6ccccc6n2c5c31)CNC4=O [Lestaurtinib] + Cn1nnc2c(C(N)=O)ncn2c1=O [temozolomide] (first compound 0.004 µM, partner dose 2 µM)",86.4,181,115,95.3,124,94.8,92.1,129,81.4,–
"C[As](C)SC[C@H](NC(=O)CC[C@H](N)C(=O)O)C(=O)NCC(=O)O [Darinaparsin] + C/C(O)=C(\C#N)C(=O)Nc1cc(Br)ccc1Br [LFM-A13] (first compound 0.4 µM, partner dose 2 µM)",191,169,179,90.9,111,103,195,143,–,–
"Cn1cc(C2=C(c3cn(C4CCN(Cc5ccccn5)CC4)c4ccccc34)C(=O)NC2=O)c2ccccc21 [Enzastaurin] + NC1(c2ccc(-c3nc4ccn5c(=O)[nH]nc5c4cc3-c3ccccc3)cc2)CCC1 [MK2206] (first compound 0.8 µM, partner dose 0.4 µM)",38.6,109,27.3,89.1,43.4,80.5,38.1,306,153,–
"Cn1cc(C2=C(c3cn(C4CCN(Cc5ccccn5)CC4)c4ccccc34)C(=O)NC2=O)c2ccccc21 [Enzastaurin] + CC(=O)O[C@@]12CO[C@@H]1C[C@H](O)[C@@]1(C)C(=O)[C@H](O)C3=C(C)[C@@H](OC(=O)[C@H](O)[C@@H](NC(=O)OC(C)(C)C)c4ccccc4)C[C@@](O)([C@@H](OC(=O)c4ccccc4)[C@H]21)C3(C)C [Docetaxel] (first compound 0.8 µM, partner dose 0.0001 µM)",176,274,359,373,194,767,45.1,176,172,–
"C[C@@H](N)c1ccc(C(=O)Nc2ccnc3[nH]ccc23)cc1 + Cc1cc(SCc2sc(-c3ccc(C(F)(F)F)c(F)c3)nc2C)ccc1OCC(=O)O [GW0742] (first compound 0.4 µM, partner dose 2 µM)",–,118,38.4,200,139,59.7,151,1130,–,30.4
"C[As](C)SC[C@H](NC(=O)CC[C@H](N)C(=O)O)C(=O)NCC(=O)O [Darinaparsin] + Oc1cc(-c2nc(-c3ccccc3)[nH]c2-c2ccncc2)ccc1Cl [L779450] (first compound 0.4 µM, partner dose 0.2 µM)",102,150,48.1,61.4,89.2,98.5,107,21,–,–
"COCC[n+]1c2c(n(Cc3cnccn3)c1C)C(=O)c1ccccc1C2=O + O=C(Oc1ccc([N+](=O)[O-])cc1)N1CCC(C(O)(c2ccc3c(c2)OCO3)c2ccc3c(c2)OCO3)CC1 [JZL184] (first compound 0.0004 µM, partner dose 1 µM)",83.1,192,20.8,89.5,189,55.7,97,89.7,–,–
"Cc1nc(Nc2ncc(C(=O)Nc3c(C)cccc3Cl)s2)cc(N2CCN(CCO)CC2)n1 [dasatanib] + O=C(Oc1ccc([N+](=O)[O-])cc1)N1CCC(C(O)(c2ccc3c(c2)OCO3)c2ccc3c(c2)OCO3)CC1 [JZL184] (first compound 0.004 µM, partner dose 1 µM)",143,262,162,220,31.1,252,46.4,98.5,–,–
"C[As](C)SC[C@H](NC(=O)CC[C@H](N)C(=O)O)C(=O)NCC(=O)O [Darinaparsin] + COc1ccc(Cl)c(Nc2nc3ccccc3nc2NS(=O)(=O)c2cccc(NC(=O)C(C)(C)N)c2)c1 [XL147] (first compound 0.4 µM, partner dose 0.8 µM)",294,112,99.8,98,166,178,33.3,92.3,80.3,–
"C[C@]12O[C@H](C[C@]1(O)CO)n1c3ccccc3c3c4c(c5c6ccccc6n2c5c31)CNC4=O [Lestaurtinib] + C[C@@H](Oc1cc(-c2cnn(C3CCNCC3)c2)cnc1N)c1c(Cl)ccc(F)c1Cl [Crizotinib] (first compound 0.004 µM, partner dose 0.2 µM)",67.7,122,96.3,61.9,126,88.6,120,214,75.6,–
"COc1cc([C@@H]2c3cc4c(cc3[C@@H](O[C@@H]3O[C@@H]5CO[C@@H](C)O[C@H]5[C@H](O)[C@H]3O)[C@H]3COC(=O)[C@H]23)OCO4)cc(OC)c1O [etoposide] + N.N.[Cl][Pt][Cl] [cisplatin] (first compound 0.02 µM, partner dose 1.6 µM)",122,103,71.9,151,–,127,43.6,163,43.9,210
"Cn1cc(C2=C(c3cn(C4CCN(Cc5ccccn5)CC4)c4ccccc34)C(=O)NC2=O)c2ccccc21 [Enzastaurin] + C[C@@H](Oc1cc(-c2cnn(C3CCNCC3)c2)cnc1N)c1c(Cl)ccc(F)c1Cl [Crizotinib] (first compound 0.8 µM, partner dose 0.2 µM)",94.3,26.6,41.5,89.4,27,175,56.2,105,125,–
"C[C@]12O[C@H](C[C@]1(O)CO)n1c3ccccc3c3c4c(c5c6ccccc6n2c5c31)CNC4=O [Lestaurtinib] + COc1cc(N2CCC(N3CCN(C)CC3)CC2)ccc1Nc1ncc(Cl)c(Nc2ccccc2S(=O)(=O)C(C)C)n1 [NVP-TAE684] (first compound 0.004 µM, partner dose 0.08 µM)",–,62.7,175,121,201,221,61.7,67.5,–,65
"Cn1cc(C2=C(c3cn(C4CCN(Cc5ccccn5)CC4)c4ccccc34)C(=O)NC2=O)c2ccccc21 [Enzastaurin] + Cn1cc(/C=C2\C(=O)Nc3cccnc32)c2ccccc21 [GW441756] (first compound 0.8 µM, partner dose 0.4 µM)",–,59.4,110,65.2,121,91.5,88.1,104,–,163

# 2 records picked at random from the list so far, as already listed:
Compound,cleaved PARP positive nuclei fraction (CBRC034) [%],cleaved PARP positive nuclei fraction (COLO792) [%],cleaved PARP positive nuclei fraction (COLO800) [%],cleaved PARP positive nuclei fraction (COLO829) [%],cleaved PARP positive nuclei fraction (G361) [%],cleaved PARP positive nuclei fraction (IPC-298) [%],cleaved PARP positive nuclei fraction (IST-MEL1) [%],cleaved PARP positive nuclei fraction (LOXIMVI) [%],cleaved PARP positive nuclei fraction (MEL-HO) [%],cleaved PARP positive nuclei fraction (LB2518-MEL) [%]
"Cn1cc(C2=C(c3cn(C4CCN(Cc5ccccn5)CC4)c4ccccc34)C(=O)NC2=O)c2ccccc21 [Enzastaurin] + N.N.[Cl][Pt][Cl] [cisplatin] (first compound 0.8 µM, partner dose 1.6 µM)",127,73.8,69,132,108,356,169,38.2,82.7,–
"Cc1nc(Nc2ncc(C(=O)Nc3c(C)cccc3Cl)s2)cc(N2CCN(CCO)CC2)n1 [dasatanib] + O=C(Oc1ccc([N+](=O)[O-])cc1)N1CCC(C(O)(c2ccc3c(c2)OCO3)c2ccc3c(c2)OCO3)CC1 [JZL184] (first compound 0.004 µM, partner dose 1 µM)",143,262,162,220,31.1,252,46.4,98.5,–,–
